1 molecule from paper PMC5177617 can be followed below.

Results are given in words; binding and its absence hold for the method and conditions named.

For this assay, the target named is bovine serum albumin (negative control), P02769. The experiment in a line: condition: 50 µg of DC-SIGN tetramer on 15 µg of blotted protein; far-Western, overlay or dot blot; 15 µg of ghA, ghB, ghC, MBP or BSA run on 12% SDS-PAGE and blotted; probed with 50 µg of DC-SIGN tetramer overnight at room temperature; detected with anti-DC-SIGN polyclonal antibody and Protein A-HRP; both purified. Particulars: remark: other sources report otherwise.

B1: soluble DC-SIGN tetramer (entire extracellular domain including the α-helical neck region), Q9NNX6 59-404 (domain or fragment)
chain: QVSKVPSSISQEQSRQDAIYQNLTQLKAAVGELSEKSKLQEIYQELTQLKAAVGELPEKSKLQEIYQELTRLKAAVGELPEKSKLQEIYQELTWLKAAVGELPEKSKMQEIYQELTRLKAAVGELPEKSKQQEIYQELTRLKAAVGELPEKSKQQEIYQELTRLKAAVGELPEKSKQQEIYQELTQLKAAVERLCHPCPWEWTFFQGNCYFMSNSQRNWHDSITACKEVGAQLVVIKSAEEQNFLQLQSSRSNRFTWMGLSDLNQEGTWQWVDGSPLLPSFKQYWNRGEPNNVGEEDCAEFSGNGWNDDKCNLAKFWICKKSAASCSRDEEQFLSPAPATPNPPPA
Take B1: the binding entry is listed as “no binding”.
